According to article PMC5437232:
These are yes or no findings as the source states them, for the method shown. In cells and extracts the contact can be indirect. Some binding calls cover weakened binding; strength is not graded here.

Amino acid sequences for entries named in this document (tags omitted). A change or cut given only in a name is not applied to a line headed by its entry. Chains listed by the source or under a name are the forms on record and can include a tag or linker. Residues count along the entry.
wild-type MPO precursor (90-kDa apoproMPO/proMPO) expressed in stably transfected HEK cells (P05164, residues 49-745): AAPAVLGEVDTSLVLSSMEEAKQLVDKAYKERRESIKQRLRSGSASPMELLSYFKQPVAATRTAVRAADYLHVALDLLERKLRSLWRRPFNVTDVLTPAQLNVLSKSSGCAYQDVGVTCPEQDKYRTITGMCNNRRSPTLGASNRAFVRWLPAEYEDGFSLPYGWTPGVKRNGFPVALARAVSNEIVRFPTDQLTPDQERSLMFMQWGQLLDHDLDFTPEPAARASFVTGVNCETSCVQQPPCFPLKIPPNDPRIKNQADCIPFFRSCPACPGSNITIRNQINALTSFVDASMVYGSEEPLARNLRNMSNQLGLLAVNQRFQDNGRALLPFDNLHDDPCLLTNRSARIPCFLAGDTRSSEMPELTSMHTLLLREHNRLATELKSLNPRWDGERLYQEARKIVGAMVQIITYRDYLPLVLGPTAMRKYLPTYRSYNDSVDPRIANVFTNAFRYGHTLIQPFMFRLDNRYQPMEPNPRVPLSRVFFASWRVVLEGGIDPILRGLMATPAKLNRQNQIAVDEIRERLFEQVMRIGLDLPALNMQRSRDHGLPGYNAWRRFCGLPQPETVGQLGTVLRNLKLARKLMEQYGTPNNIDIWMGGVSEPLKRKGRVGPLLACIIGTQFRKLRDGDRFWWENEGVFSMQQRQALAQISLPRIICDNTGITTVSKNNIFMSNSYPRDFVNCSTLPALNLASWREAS
MPO double mutant C158A/C319A precursor expressed in stably transfected HEK cells (P05164, form named): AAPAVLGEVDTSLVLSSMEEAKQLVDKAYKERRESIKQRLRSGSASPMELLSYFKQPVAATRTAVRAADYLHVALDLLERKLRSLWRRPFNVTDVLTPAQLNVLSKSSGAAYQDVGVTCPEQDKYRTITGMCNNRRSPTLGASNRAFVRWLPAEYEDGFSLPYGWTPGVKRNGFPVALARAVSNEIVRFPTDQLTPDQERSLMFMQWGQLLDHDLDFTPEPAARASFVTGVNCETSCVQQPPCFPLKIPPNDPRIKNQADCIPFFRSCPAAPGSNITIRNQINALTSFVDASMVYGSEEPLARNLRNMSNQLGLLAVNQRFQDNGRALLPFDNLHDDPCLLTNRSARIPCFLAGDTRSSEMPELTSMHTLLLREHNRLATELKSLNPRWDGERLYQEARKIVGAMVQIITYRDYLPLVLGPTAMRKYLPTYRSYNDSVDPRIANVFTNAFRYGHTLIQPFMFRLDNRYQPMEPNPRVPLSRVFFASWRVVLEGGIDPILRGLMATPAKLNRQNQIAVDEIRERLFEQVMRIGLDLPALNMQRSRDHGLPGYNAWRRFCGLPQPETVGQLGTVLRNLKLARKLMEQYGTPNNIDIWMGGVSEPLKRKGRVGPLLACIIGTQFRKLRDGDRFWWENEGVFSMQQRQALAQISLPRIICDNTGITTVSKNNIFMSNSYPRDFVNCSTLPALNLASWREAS
MPO mutant C158A precursor expressed in stably transfected HEK cells (P05164, form named): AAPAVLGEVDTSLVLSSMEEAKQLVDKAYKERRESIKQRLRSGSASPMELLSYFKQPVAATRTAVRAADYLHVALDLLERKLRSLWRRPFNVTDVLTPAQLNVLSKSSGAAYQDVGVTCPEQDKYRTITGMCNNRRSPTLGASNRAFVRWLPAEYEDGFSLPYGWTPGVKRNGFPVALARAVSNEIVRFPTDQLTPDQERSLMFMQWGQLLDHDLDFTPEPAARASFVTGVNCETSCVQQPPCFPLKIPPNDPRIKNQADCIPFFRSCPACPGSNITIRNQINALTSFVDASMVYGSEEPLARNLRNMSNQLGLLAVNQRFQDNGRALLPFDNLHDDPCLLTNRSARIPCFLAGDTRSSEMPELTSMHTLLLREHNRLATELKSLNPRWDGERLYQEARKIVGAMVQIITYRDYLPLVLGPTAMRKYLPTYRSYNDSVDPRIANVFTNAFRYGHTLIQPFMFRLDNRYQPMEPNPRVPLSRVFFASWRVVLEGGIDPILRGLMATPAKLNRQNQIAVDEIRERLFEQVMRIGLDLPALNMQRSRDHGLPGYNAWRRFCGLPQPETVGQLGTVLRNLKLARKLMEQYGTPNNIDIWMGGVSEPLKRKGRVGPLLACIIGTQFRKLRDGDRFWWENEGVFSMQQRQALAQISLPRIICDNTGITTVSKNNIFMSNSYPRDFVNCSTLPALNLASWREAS
MPO mutant C319A precursor expressed in stably transfected HEK cells (P05164, form named): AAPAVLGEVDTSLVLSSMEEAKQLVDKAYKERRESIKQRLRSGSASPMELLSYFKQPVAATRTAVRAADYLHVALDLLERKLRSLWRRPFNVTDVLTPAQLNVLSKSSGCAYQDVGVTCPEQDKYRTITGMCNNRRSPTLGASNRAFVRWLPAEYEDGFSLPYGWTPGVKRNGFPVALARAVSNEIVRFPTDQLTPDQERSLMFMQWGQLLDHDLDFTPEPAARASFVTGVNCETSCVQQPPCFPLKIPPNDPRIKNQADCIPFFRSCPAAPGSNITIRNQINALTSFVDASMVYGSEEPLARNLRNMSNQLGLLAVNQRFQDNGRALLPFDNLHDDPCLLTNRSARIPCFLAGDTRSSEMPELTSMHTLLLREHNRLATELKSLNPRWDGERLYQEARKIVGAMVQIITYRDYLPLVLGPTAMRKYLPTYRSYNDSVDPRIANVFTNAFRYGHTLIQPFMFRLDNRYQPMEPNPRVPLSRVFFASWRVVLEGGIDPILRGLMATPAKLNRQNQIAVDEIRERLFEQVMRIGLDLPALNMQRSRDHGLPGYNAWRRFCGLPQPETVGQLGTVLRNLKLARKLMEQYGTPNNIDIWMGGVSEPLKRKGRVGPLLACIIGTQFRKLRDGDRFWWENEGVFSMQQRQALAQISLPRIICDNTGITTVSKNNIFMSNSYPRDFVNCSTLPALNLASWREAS

What was measured:
[1] = target: T1, calnexin (human (endogenous in HEK293)) (UniProt P27824); experiment: co-IP; data not shown; association of the C158A and C319A/C158A precursors with CLN in HEK cell lines
T1 sequence: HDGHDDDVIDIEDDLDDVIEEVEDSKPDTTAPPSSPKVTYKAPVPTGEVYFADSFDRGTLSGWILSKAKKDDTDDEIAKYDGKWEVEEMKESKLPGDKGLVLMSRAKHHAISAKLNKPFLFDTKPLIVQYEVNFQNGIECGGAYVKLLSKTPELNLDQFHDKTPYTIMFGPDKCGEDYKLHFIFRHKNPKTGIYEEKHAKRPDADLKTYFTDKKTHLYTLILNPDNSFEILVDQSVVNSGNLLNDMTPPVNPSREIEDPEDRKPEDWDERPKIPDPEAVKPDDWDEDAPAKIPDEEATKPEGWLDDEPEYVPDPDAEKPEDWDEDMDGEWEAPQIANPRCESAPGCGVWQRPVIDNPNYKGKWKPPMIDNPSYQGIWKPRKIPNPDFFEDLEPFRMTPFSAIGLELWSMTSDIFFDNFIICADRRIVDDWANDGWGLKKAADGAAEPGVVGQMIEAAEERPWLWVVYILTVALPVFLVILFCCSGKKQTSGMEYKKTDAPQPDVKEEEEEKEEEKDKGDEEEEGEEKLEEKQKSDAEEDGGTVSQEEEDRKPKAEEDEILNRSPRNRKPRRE

[2] = target: calreticulin (human (endogenous in HEK293)) (UniProt P27797); experiment: co-IP; sequential immunoprecipitation of lysates of biosynthetically [35S]-radiolabeled stable transfectants chased 0-4 h: first antibody against CLN or CRT under nondenaturing conditions, release by heating in 2% SDS, 10-fold dilution, then MPO antiserum; SDS-PAGE, autoradiography, PhosphorImager

| binding [1] | binding [2] | Substance |
| --- | --- | --- |
| binds | – | MPO double mutant C158A/C319A precursor expressed in stably transfected HEK cells (from UniProt P05164 49-745) |
| binds | – | MPO mutant C158A precursor expressed in stably transfected HEK cells (from UniProt P05164 49-745) |
| – | binds | MPO mutant C319A precursor expressed in stably transfected HEK cells (from UniProt P05164 49-745) |
| – | binds | wild-type MPO precursor (90-kDa apoproMPO/proMPO) expressed in stably transfected HEK cells (from UniProt P05164 49-745) |
